Results are given in words; binding and its absence hold for the method and conditions named. Some binding calls cover weakened binding; strength is not graded here. Sequences can lack the tags named with a protein.
T1: Saccharomyces cerevisiae Mre11, his-tagged (S. cerevisiae) (UniProt P32829)
T1 sequence: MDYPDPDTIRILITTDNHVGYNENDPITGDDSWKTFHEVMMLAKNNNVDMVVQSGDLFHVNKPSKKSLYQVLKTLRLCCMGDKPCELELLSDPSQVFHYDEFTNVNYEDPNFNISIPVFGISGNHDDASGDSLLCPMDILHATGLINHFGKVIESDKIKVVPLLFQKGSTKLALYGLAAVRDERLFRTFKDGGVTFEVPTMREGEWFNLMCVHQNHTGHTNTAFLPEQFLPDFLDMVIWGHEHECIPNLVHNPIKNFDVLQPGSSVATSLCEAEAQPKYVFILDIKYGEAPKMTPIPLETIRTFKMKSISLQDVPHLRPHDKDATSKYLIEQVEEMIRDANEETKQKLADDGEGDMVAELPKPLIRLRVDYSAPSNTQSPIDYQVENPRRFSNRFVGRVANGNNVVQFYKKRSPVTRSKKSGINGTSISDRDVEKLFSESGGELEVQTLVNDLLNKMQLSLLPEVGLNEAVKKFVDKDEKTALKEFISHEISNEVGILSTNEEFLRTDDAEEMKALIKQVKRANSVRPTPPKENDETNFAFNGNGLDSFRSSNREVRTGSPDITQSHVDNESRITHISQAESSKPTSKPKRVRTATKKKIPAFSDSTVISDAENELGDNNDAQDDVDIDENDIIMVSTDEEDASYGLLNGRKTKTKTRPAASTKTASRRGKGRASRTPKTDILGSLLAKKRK


Tests used:
[1] = molecular target: T1, Saccharomyces cerevisiae Mre11, his-tagged (S. cerevisiae); test: co-purification by sequential affinity chromatography; MRX co-expressed in Sf9; sequential NiNTA (his-Mre11) and FLAG (Xrs2-FLAG) affinity purification
[2] = molecular target: T1, Saccharomyces cerevisiae Mre11, his-tagged (S. cerevisiae); test: co-purification by affinity and ion exchange chromatography; MR co-expressed in Sf9 without Xrs2; NiNTA (his-Mre11), then HiTrap SP HP and HiTrap Q HP

Row | Binder | binding [1] | binding [2]
1 | Saccharomyces cerevisiae Xrs2-FLAG (protein, UniProt P33301 1-854) MWVVRYQNTLEDGSISFISCCLQAFKTYSIGRSSKNPLIIKNDKSISRQHITFKWEINNSSDLKHSSLCLVNKGKLTSLNKKFMKVGETFTINASDVLKSTIIELGTTPIRIEFEWINEVWNIPPHLTQFRTMLSEYGISTEISINDIPANLMISDYPKSEDNSIRELYALVSTIPMKKSRFLMELCNTLLPTSKTNLKFDEMWNDMISNPEYNVFDFDPNILLSKFMRLNNIRVLTTIKSEPRLSSLLRTFNINLFAFDNIDSLYKYVDSLEASTEYLILTTTDKKENGKILCTIKTMLTSIIDGTLSAVINMKGASSRTLDNGKFDQISEGMSTILKTSRAPEVEASPVVSKKRKLNRRRVLPLDSLDFFAGGLSTKTLSENRSLTDAKRLNCGAESKTVISSPNIAEADEKHAPFLQNALKPTEDIGKKSGHSSPGAIIVSSPNLGTVNTSEDSLDKSLQSHKLPQPSLPEVAGIGSQTISSNSADYETAAVNSMDDAEVTKNFRVNHHQNIEQPSKNIRKLSNYSREISSPLQENCKSPVKELSIKEKSGTPHAFVEAIQETKNREVKRVKSTIVELKDEELSEEAINQLKNLAIVEPSNNLLRKSFDSEGNKTSRTTEKWENSLMEPEWHKRKNFKTFVKVRPKSKAHKEEGKNNTQSSDFIRNAAFLITRNYVPLKKYSKKDTTTKWGTEENEDMFALTEMERFGSNTFMSDNINSNTIQKRSQALNRFTNEDSSNEGEEDSFSFSRCSGTAASVQPLKNKIFITDEDDLGDIDDKSDRLNHRENNRNLFVVKEMNLRPNLSEECSKQSRHSRSATSRSRGSFGASNNGDGDDDDDDGPKFTFKRRKG | binds | –
2 | Saccharomyces cerevisiae Rad50, untagged (protein, UniProt P12753 1-1312) MSAIYKLSIQGIRSFDSNDRETIEFGKPLTLIVGMNGSGKTTIIECLKYATTGDLPPNSKGGVFIHDPKITGEKDIRAQVKLAFTSANGLNMIVTRNIQLLMKKTTTTFKTLEGQLVAINNSGDRSTLSTRSLELDAQVPLYLGVPKAILEYVIFCHQEDSLWPLSEPSNLKKKFDEIFQAMKFTKALDNLKSIKKDMSVDIKLLKQSVEHLKLDKDRSKAMKLNIHQLQTKIDQYNEEVSEIESQLNEITEKSDKLFKSNQDFQKILSKVENLKNTKLSISDQVKRLSNSIDILDLSKPDLQNLLANFSKVLMDKNNQLRDLETDISSLKDRQSSLQSLSNSLIRRQGELEAGKETYEKNRNHLSSLKEAFQHKFQGLSNIENSDMAQVNHEMSQFKAFISQDLTDTIDQFAKDIQLKETNLSDLIKSITVDSQNLEYNKKDRSKLIHDSEELAEKLKSFKSLSTQDSLNHELENLKTYKEKLQSWESENIIPKLNQKIEEKNNEMIILENQIEKFQDRIMKTNQQADLYAKLGLIKKSINTKLDELQKITEKLQNDSRIRQVFPLTQEFQRADLEMDFQKLFINMQKNIAINNKKMHELDRRYTNALYNLNTIEKDLQDNQKSKEKVIQLLSENLPEDCTIDEYNDVLEETELSYKTALENLKMHQTTLEFNRKALEIAERDSCCYLCSRKFENESFKSKLLQELKTKTDANFEKTLKDTVQNEKEYLHSLRLLEKHIITLNSINEKIDNSQKCLEKAKEETKTSKSKLDELEVDSTKLKDEKELAESEIRPLIEKFTYLEKELKDLENSSKTISEELSIYNTSEDGIQTVDELRDQQRKMNDSLRELRKTISDLQMEKDEKVRENSRMINLIKEKELTVSEIESSLTQKQNIDDSIRSKRENINDIDSRVKELEARIISLKNKKDEAQSVLDKVKNERDIQVRNKQKTVADINRLIDRFQTIYNEVVDFEAKGFDELQTTIKELELNKAQMLELKEQLDLKSNEVNEEKRKLADSNNEEKNLKQNLELIELKSQLQHIESEISRLDVQNAEAERDKYQEESLRLRTRFEKLSSENAGKLGEMKQLQNQIDSLTHQLRTDYKDIEKNYHKEWVELQTRSFVTDDIDVYSKALDSAIMKYHGLKMQDINRIIDELWKRTYSGTDIDTIKIRSDEVSSTVKGKSYNYRVVMYKQDVELDMRGRCSAGQKVLASIIIRLALSETFGANCGVIALDEPTTNLDEENIESLAKSLHNIINMRRHQKNFQLIVITHDEKFLGHMNAAAFTDHFFKVKRDDRQKSQIEWVDINRVTY | binds | binds

Source: paper PMC11237066
